This is one part of the list.

The target in this assay is T1, OsSMF1 (Oryza sativa, UniProt Q6ZLB0 1-436).
T1 sequence: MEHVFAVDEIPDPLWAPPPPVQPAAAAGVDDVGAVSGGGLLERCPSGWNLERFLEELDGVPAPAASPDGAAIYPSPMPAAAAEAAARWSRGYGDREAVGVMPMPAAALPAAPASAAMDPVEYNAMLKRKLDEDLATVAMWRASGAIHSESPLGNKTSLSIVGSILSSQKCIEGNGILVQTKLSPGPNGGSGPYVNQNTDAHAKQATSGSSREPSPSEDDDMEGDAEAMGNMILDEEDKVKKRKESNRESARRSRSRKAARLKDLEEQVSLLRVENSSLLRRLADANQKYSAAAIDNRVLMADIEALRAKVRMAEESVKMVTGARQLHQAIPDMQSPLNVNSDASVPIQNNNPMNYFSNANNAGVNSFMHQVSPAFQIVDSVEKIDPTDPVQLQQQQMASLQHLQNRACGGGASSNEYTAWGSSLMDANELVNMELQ
Kind of assay: protein-binding microarray (RPBM); PBS, 2% BSA, 51.3 ng/ul salmon testes DNA, 50 uM zinc acetate, 200 nM TF, 25 C, 1 h; high values mean tight binding. As to conditions: protein: recombinant; tags: N-terminal polyhistidine and DsRed monomer fusion (pET32a); chain copies: 2; label: CyDye5-dUTP incorporated in the synthesized complementary strand; 3' TTTTT single-stranded linker to array surface; dsDNA, one strand shown. The method, boiled down: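 Transcription factors, each fused N-terminally to a polyhistidine tag and DsRed, were expressed in E. coli BL21-CodonPlus and purified on Ni–NTA. A custom Agilent array was made double-stranded by primer extension with Cy5-dUTP and blocked with 2% BSA. It was incubated with 200 nM protein in PBS, 2% BSA, salmon testes DNA and 50 µM zinc acetate at 25 °C for 1 h, then washed. The binding signal is per-feature fluorescence intensity (arbitrary units) read on an Axon 4000B scanner.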
For the sequence “GCAGTACCCCGTGTCGTCACCGCCGGCGGCGCCGACGCCACGGAGTCACCTAGTGCAG”, the binding signal is 4190 fluorescence intensity (a.u.).

On to “TGCTGCGTAGGATTTGGTGTTCTCGCACTGGTTAGTTGCTCGGAGTCACCTAGTGCAG”, for which the binding signal is 4040 fluorescence intensity (a.u.). As for “CGTACGCCTCCTAGCTAGTTCGAGCATCCCACGTCGAGTCCGGAGTCACCTAGTGCAG”, the binding signal was 3300 fluorescence intensity (a.u.). In the case of “GTGTCGCGATCTGCGATGGTCGTCTCGTCCGCGACACCCCCGGAGTCACCTAGTGCAG”, the binding signal is 5860 fluorescence intensity (a.u.).

Turning to “TTTGGTTTCCGGCCAAACATTGCCACGCCTAACTTAAGGCCGGAGTCACCTAGTGCAG”, the binding signal was 5170 fluorescence intensity (a.u.). As to “GCGTCTTGTGTGACTCCTACCTGTCGCTGATCATGGTGATCGGAGTCACCTAGTGCAG”, the binding signal is 3470 fluorescence intensity (a.u.). For “TGGGGCCGGGCCGTGCCGACGTGTGAGCACAAGTAGTGTTCGGAGTCACCTAGTGCAG” the value was 5210 fluorescence intensity (a.u.); for “ATACTCACAAGACACGGTTTCTCTTGCCGCGTCTGCAGCACGGAGTCACCTAGTGCAG”, 3550 fluorescence intensity (a.u.); for “TACGGACCAAGCTGACTCACCCCTAAACAAGTCTACCCCACGGAGTCACCTAGTGCAG”, 10200 fluorescence intensity (a.u.). For “TTTACGTACACGTGTATATGTCATACTACCTCTATTTCAGCGGAGTCACCTAGTGCAG” the value was 13100 fluorescence intensity (a.u.); for “TGCCCACACAATCCACTCATGACTATATCTATCTATCTATCGGAGTCACCTAGTGCAG”, 4090 fluorescence intensity (a.u.). For “GTCCGGCGTGTGGGTGTACCAGAACTCGTCGTCGCCGTGGCGGAGTCACCTAGTGCAG” the value was 3550 fluorescence intensity (a.u.); for “CAGAAAATATCAAGCACGCGTCATCACCAGCAAGTGACGGCGGAGTCACCTAGTGCAG”, 7240 fluorescence intensity (a.u.); for “TGGGCCCTGCACTGACTCAGCCACCACGTCAACAAAACCGCGGAGTCACCTAGTGCAG”, 12800 fluorescence intensity (a.u.).

On to “AGTTAGCAACTTCCATTTCTAAACAATGCGCTGGTCAGCACGGAGTCACCTAGTGCAG”, for which the binding signal was 3790 fluorescence intensity (a.u.). As for “ACTACCATGCAGTCTTTAACTTCTTCCCCAGAATACGTCACGGAGTCACCTAGTGCAG”, the figure is 4350 fluorescence intensity (a.u.). In the case of “GGCGGCGGCTGCGGCGATGGCGGGGCAGGAGCGGAGGACGCGGAGTCACCTAGTGCAG”, the binding signal was 3420 fluorescence intensity (a.u.).

On to “ATACTAGTAATATGCCCGTGCTAACGCTACGTGTATGTTTCGGAGTCACCTAGTGCAG”, for which the binding signal is 4230 fluorescence intensity (a.u.). As for “AATTCCCATTGCGTGGACCGACGACGAAACGACCGTGTCCCGGAGTCACCTAGTGCAG”, the figure is 3240 fluorescence intensity (a.u.); as for “TTTGCGCATGTTCAAGAACAATCTGTGACTTGACAACAGACGGAGTCACCTAGTGCAG”, 3230 fluorescence intensity (a.u.); as for “TCAGGAGGGAGATAACGGTTGCCACGTGGAAGCTAGCCGCCGGAGTCACCTAGTGCAG”, 16900 fluorescence intensity (a.u.). For “CAGTCTGTCTTGGTCTCTTTGTTCAGTCATGGTCTCTCTTCGGAGTCACCTAGTGCAG” the value was 3260 fluorescence intensity (a.u.); for “CAACCCAAGGTTGTGCTGCCCCGTTTCCTTGTGTCAGAAACGGAGTCACCTAGTGCAG”, 3170 fluorescence intensity (a.u.). As to “ACGACAACGACGAGCTCTGGTCATGAACACGACCAAGTGACGGAGTCACCTAGTGCAG”, the binding signal was 3820 fluorescence intensity (a.u.). Regarding “TTGTCCGATGTGGCAGTTGAGTCAGCATGAGACCCACGTACGGAGTCACCTAGTGCAG”, the binding signal is 14200 fluorescence intensity (a.u.). As for “AGAAATAGATATAGGTGTTCTCAATCCGAAAATTCGGAACCGGAGTCACCTAGTGCAG”, the figure is 3720 fluorescence intensity (a.u.). As for “GAATTTACTTTAGCGGAGATTGAGCACTTTGTGGACCCAGCGGAGTCACCTAGTGCAG”, the figure is 52400 fluorescence intensity (a.u.). “GTTGCCTTCGTGTCCAGTGGATAGATAAGGATAGGATTTTCGGAGTCACCTAGTGCAG”: the binding signal was 65500 fluorescence intensity (a.u.). As to “TGGTGCTAGCTAGTGCTAGTGCCAGTGTCCAGTGGTGGTACGGAGTCACCTAGTGCAG”, the binding signal was 3290 fluorescence intensity (a.u.). “CAGCCCTTGAGCAGTTCTTGGTGGCTTCAGCCATCCAAACCGGAGTCACCTAGTGCAG”: the binding signal is 23400 fluorescence intensity (a.u.).

As to “TACATTTTGGTGGAAATGAGTTACCTGTTGAGTGTACTAACGGAGTCACCTAGTGCAG”, the binding signal was 3510 fluorescence intensity (a.u.). For “TGTGAGTAGTTTGTGGTTGGGAGTGTAACGGGTGGGGTGGCGGAGTCACCTAGTGCAG” the value was 4010 fluorescence intensity (a.u.); for “GCTGCACCGCCGCCATCGTCGTGGTTGGGACTTGGGAGAGCGGAGTCACCTAGTGCAG”, 5190 fluorescence intensity (a.u.). As for “TGCATGCTGTTTAATTTTATCATGTGTGCAAATGGTTATACGGAGTCACCTAGTGCAG”, the figure is 3580 fluorescence intensity (a.u.); as for “ACTTTCAGTGGGCTCGCGTTGAATGTTGGTGATGGTCAGACGGAGTCACCTAGTGCAG”, 4360 fluorescence intensity (a.u.); as for “TCCGCCATCTCCTCCCCGACCATCGCCACCTCCTTCTCCTCGGAGTCACCTAGTGCAG”, 3300 fluorescence intensity (a.u.). As to “AAACGATAAAGCAAGCAAGTGACGCAGATGATTACAAGACCGGAGTCACCTAGTGCAG”, the binding signal is 4520 fluorescence intensity (a.u.). As for “AAATTGTGCACGTGTAATACACGTCGTGACCTATATTAAACGGAGTCACCTAGTGCAG”, the figure is 5690 fluorescence intensity (a.u.); as for “TGTGCTGTGTGGTGTACTGGTGTGTGGGCTTAATAATTGTCGGAGTCACCTAGTGCAG”, 4340 fluorescence intensity (a.u.); as for “AAACATTAGATTATTCTCACAAGAGTTATTCGATGATAATCGGAGTCACCTAGTGCAG”, 27800 fluorescence intensity (a.u.). As to “CCCTAGTCTCCTCCCTTGTACATAGGCAAATCCATACGCACGGAGTCACCTAGTGCAG”, the binding signal was 3640 fluorescence intensity (a.u.). For “TCAATAATGTGTGCGTGACCTGGGCAAGTGGCGGTAGCAACGGAGTCACCTAGTGCAG” the value was 3540 fluorescence intensity (a.u.).

The record behind these values is publication PMC7819943, “Rice protein-binding microarrays: a tool to detect cis-acting elements near promoter regions in rice”.
